Assay results from patent US11964025 (dated 2024).

Assay: general procedure: solution-phase peptide synthesis; EDC/NHS; HATU/HOAt/DIEA; EDC/HOAt
Settings: conjugation step

Bis-Glucamine Scaffold 75
conjugation yield: yield 82%
